In assay [1] the target is T1, FLAG-tagged IFNLR1 variant 2 (noncanonical variant missing part of the Box1 and Box2 JAK1-interacting motifs) (UniProt Q8IU57).
T1 sequence: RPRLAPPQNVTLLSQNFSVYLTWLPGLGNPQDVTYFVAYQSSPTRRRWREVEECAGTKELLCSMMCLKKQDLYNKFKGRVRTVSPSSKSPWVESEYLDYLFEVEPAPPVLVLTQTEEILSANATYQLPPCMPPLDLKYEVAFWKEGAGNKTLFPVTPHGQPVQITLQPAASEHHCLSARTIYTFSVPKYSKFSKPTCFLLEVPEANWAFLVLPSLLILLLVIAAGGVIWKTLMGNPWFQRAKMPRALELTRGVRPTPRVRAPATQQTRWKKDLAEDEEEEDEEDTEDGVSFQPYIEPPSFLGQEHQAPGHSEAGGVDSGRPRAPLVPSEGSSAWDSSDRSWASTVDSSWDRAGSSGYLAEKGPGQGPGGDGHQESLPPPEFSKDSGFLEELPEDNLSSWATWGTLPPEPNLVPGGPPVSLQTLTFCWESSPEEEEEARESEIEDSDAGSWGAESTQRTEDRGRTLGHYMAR
Kind of assay: proximity ligation; IFNL3 (100 ng/ml, 15 min) added to dox-uninduced HEK293T cells expressing the FLAG-tagged variant; ligand binding read from the IFNL3-dependent FLAG/IL10RB PLA signal, IFNL3 itself not detected; only the binder purified.

Assay [2] addresses T2, FLAG-tagged IFNLR1 variant 1 (full-length canonical interferon lambda receptor 1) (UniProt Q8IU57).
T2 sequence: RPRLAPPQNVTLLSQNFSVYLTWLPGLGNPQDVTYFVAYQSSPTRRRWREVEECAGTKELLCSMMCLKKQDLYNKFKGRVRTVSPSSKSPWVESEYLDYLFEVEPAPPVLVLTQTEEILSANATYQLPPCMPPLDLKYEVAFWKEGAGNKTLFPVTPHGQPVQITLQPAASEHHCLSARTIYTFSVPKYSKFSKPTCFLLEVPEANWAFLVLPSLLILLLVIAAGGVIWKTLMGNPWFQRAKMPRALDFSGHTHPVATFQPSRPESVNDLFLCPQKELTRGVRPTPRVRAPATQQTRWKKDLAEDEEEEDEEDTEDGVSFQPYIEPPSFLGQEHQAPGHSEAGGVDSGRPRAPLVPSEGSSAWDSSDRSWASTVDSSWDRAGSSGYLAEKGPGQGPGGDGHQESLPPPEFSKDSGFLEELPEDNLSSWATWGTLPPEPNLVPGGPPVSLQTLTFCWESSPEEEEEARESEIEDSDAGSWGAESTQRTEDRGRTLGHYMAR
Described as above.

No constants are given. Whether binding was seen depends on the method and setting. Binding seen in cells or lysates may run through a third protein. Some entries that bind do so weakly or less than the wild type. Tags and fused reporters may be left off the sequences shown.

B1: IFNL3 (lambda interferon 3) (ligand, UniProt Q8IZI9 22-196)
chain: VPVARLRGALPDARGCHIAQFKSLSPQELQAFKRAKDALEESLLLKDCKCRSRLFPRTWDLRQLQVRERPVALEAELALTLKVLEATADTDPALGDVLDQPLHTLHHILSQLRACIQPQPTAGPRTRGRLHHWLHRLQEAPKKESPGCLEASVTFNLFRLLTRDLNCVASGDLCV
On to B1, for which the binding result in assay [1] and in assay [2] was “binds” each time.

For the origin of these results see article doi:10.1101/2025.10.03.677101.
